The values below come from paper PMC7022808.

Amino acid sequences for entries named in this document (tags omitted).
UniProt P26465: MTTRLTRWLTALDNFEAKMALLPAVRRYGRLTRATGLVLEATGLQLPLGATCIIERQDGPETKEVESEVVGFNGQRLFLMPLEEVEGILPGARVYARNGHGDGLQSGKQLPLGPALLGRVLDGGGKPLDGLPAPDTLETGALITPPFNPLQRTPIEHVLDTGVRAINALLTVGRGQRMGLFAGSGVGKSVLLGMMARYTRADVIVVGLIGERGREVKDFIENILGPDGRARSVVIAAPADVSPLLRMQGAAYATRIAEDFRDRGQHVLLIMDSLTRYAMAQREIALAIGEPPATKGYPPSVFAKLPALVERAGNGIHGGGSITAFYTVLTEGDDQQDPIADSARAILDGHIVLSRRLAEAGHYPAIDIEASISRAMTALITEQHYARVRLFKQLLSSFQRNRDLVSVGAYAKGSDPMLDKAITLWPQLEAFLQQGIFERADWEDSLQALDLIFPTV

No constants are given. Whether binding was seen depends on the method and setting. Some results given as binding are weak or reduced against the parent protein; the word gives no strength.

The target in assay [1] is FliH (Salmonella typhimurium) (UniProt P15934). Description: co-purification; FliH co-expressed with His-FliI from one plasmid; purified as a complex by the method of ref. 29, steps not told here.
Assay [2] deals with FliI ATPase (Salmonella typhimurium) (UniProt P26465). The description is as above.

B1: FliH (protein, UniProt P15934 1-235)
chain: MSNELPWQVWTPDDLAPPPETFVPVEADNVTLTEDTPEPELTAEQQLEQELAQLKIQAHEQGYNAGLAEGRQKGHAQGYQEGLAQGLEQGQAQAQTQQAPIHARMQQLVSEFQNTLDALDSVIASRLMQMALEAARQVIGQTPAVDNSALIKQIQQLLQQEPLFSGKPQLRVHPDDLQRVEEMLGATLSLHGWRLRGDPTLHHGGCKVSADEGDLDASVATRWQELCRLAAPGVL
Take B1: the binding result in assay [1] and in assay [2] was “binds” in each case.
